Results are given in words; binding and its absence hold for the method and conditions named. A result given as binding can be weak or reduced; the word gives no strength.

Test [1] concerns the target canine fibroblast activation protein (FAP) (canine). The experiment in a line: flow cytometry on canine FAP-transgene MC KOSA cells, canine primary fibroblasts and SK KOSA cells. On the technique in general: In flow cytometry, cells or beads pass a laser one at a time.
The target is the same in test [2]. The experiment in a line: flow cytometry (FACS) with hybridoma supernatant on MC KOSA.K9FAP vs MC KOSA parental cells, canine primary fibroblasts and SK KOSA cells; AF488 goat anti-mouse IgG secondary.

B1: 4G5 anti-canine FAP antibody (antibody, V domains shown)
VH: QVQLQQPGAELVKPGASVKLSCKASGYTITSYSLHWVKQRPGQGLEWIGEINPANGDHNFSEKFEIKATLTVDSSSNTAFMQLSRLTSEDSAVYYCTRLDDSRFHWYFDVWGAGTTVTVSS
VL: QIVLTQSPALMSASPGEKVTMTCTASSSVSYMYWYQQKPRSSPKPWIFLTSNLASGVPARFSGRGSGTSFSLTISSMEAEDAATYYCQQWSGYPPITFGSGTKLEIK
notes: Mouse hybridoma monoclonal antibody, tested as hybridoma supernatant or immunoglobulin; also called clone 4G5; 4G5 immunoglobulin
For B1, the binding result in test [1] and in test [2] was “binds” throughout.

Source of the values: patent publication US20210087294A1 (University of Pennsylvania, published 2021).
